Results are given in words; binding and its absence hold for the method and conditions named. In cells and extracts the contact can be indirect. Some results given as binding are weak or reduced against the parent protein; the word gives no strength.
Target: Yin yang-1 transcription factor (YY1), endogenous, from mouse left ventricular myocardium (mouse) (UniProt Q00899)
Test: co-immunoprecipitation and western blot, mouse LV myocardium (FIG. 6b)

Chains of the proteins cited; added tags and fusions are not shown.
UniProt Q00899: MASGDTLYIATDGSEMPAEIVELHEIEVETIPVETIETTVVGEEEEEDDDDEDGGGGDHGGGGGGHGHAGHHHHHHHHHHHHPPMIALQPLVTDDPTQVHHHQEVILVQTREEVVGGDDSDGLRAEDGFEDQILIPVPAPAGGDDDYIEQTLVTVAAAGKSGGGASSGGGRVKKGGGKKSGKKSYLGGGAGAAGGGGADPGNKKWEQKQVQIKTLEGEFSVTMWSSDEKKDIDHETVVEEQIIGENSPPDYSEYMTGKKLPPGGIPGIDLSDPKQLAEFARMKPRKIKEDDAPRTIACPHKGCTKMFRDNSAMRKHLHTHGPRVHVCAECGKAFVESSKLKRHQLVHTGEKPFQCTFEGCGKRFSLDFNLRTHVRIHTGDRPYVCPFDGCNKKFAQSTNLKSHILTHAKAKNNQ
UniProt Q6NZM9: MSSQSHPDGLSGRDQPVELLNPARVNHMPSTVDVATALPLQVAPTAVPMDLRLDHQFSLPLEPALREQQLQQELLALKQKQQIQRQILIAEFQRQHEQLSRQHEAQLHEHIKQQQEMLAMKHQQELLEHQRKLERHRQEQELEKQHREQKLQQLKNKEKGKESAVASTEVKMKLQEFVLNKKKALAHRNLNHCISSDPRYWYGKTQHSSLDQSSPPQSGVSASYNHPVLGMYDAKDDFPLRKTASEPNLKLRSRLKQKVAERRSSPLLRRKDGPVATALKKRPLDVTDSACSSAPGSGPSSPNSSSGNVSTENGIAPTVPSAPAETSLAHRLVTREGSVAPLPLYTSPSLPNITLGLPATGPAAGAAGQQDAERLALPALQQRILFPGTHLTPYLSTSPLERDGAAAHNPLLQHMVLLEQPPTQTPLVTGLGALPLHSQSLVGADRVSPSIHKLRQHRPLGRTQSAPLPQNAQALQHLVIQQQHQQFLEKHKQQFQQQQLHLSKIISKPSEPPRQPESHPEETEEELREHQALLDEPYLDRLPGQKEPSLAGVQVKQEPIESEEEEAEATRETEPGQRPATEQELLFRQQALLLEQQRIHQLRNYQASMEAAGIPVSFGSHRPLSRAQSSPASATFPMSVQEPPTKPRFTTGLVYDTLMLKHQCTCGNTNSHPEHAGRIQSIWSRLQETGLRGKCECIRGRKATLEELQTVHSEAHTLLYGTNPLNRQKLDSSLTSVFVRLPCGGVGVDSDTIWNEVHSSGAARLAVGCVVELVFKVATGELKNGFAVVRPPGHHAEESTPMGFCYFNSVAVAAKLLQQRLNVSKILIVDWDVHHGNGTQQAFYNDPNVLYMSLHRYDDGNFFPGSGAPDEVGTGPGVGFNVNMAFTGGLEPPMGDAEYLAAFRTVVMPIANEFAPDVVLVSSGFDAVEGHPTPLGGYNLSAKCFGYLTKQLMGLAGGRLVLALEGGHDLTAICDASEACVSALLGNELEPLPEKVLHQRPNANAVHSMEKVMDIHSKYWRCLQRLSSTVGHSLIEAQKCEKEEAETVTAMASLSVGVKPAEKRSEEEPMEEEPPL

In the case of “Histone deacetylase 4 (HDAC4), endogenous, from mouse left ventricular myocardium (from UniProt Q6NZM9 1-1076) (enzyme)”, the binding was “binds”.

Source: US20240417727A1, “ANTAGONIST OF THE MIRNA-106B-5P TO TREAT OR PREVENT THE CARDIOTOXICITY THAT IS DEVELOPED IN ONCOLOGIC PATIENTS AFTER RECEIVING ANTHRACYCLINE-BASED CHEMOTHERAPY” (UNIVERSIDAD DE MURCIA, priority 2021, published 2024)
